{
  "source": "patent US6391871B1",
  "about": "(priority 1996, dated 2002)",
  "tested_on": "vacuolated PC/RS neurons",
  "assay": "Safener assay: prevention of MK-801-induced vacuole formation in PC/RS neurons",
  "details": "tested against MK-801",
  "protocol": "For each test agent, at least 5 dosages of the candidate safener agent were tested, and at least 4 rats were used in each dosage group.\nThe rats were sacrificed four hours after treatment, for histopathological evaluation. The number of vacuolated PC/RS neurons were counted on each side of the brain, at a rostrocaudal level immediately posterior to where the corpus callosum ceases decussating across the midline (approximately 5.6 mm caudal to bregma).\nThe result was subtracted from one and multiplied by 100, to calculate a percentage.\nThe confidence limits, in the right column, were the safener dosages that reduced vacuoles by 25% and 75%.",
  "note": "At least one compound was matched to its structure with a doubt left.",
  "data": [
    {"compound": "CCC1(c2ccccc2)C(=O)NC(=O)NC1=O", "note": "[Phenobarbital]", "values": [
      {"measurement": "blocking of MK-801 neurotoxicity / vacuole formation", "result": "some level of activity as a safening agent in preventing vacuoles"}
    ]}
  ]
}
